Binding data for nine molecules are collected here from publication PMC4653730.

Protein sequences, listed by entry. Tags and fused reporters are not part of them.
UniProt Q39255: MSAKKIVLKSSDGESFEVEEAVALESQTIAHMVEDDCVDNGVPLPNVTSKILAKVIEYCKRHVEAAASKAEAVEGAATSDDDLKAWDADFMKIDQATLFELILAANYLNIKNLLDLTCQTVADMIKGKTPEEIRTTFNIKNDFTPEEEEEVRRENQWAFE

These are yes or no findings as the source states them, for the method shown. Binding can be weak; no strength is given.

The chains are these.
B1: Gal4AD-VIP2 (protein, UniProt Q9FPW4 1-614)
chain: MSNLHSSLNGSASNLPDGSGRSFTASYSGQSGAPSPSFHHTGNLQGLHNIHGNYNVGNMQGTLTSRNSSMNSIPSAGVQQPNGSFSSGRFASNNLPVNLSQLSHGSSHGHSGIPNRGLNVVGNPGFSSNANGVGGSIPGILSTSAGLSNRNSVPGMGISQLLGNSGPRITNSMGNMVGGGNLGRNISSGGLSIPGLSSRLNLAANSGSGLNVQGQNRMMGGVLPQGSQVMSMLGNSYHTGGGPLSQNHVQSVNNMMLSDHPNDSSLFDINNDFPQLTSRPGSAGGTQGHLGSLRKQGLGVPLVQQNQEFSIQNEDFPALPGYKGGNSEYPMDLHQKEQLHDNAMSMMHSQNFSMGRSGGFNLGATYSSHRPQQQPQHTSSTGGLQGLGLRPLSSPNAVSSIGYDQLIQQYQQHQNQSQFPVQQMSSINQFRDSEMKSTQSEADPFCLLGLLDVLNRSNPELTSLALGIDLTTLGLDLNSTGNLYKTFASPWTNEPAKSEVEFTVPNCYYATEPPPLTRASFKRFSYELLFYTFYSMPKDEAQLYAADELYERGWFYHKELRVWFFRVGEPLVRAATYERGTYEYLDPNSFKTVRKEHFVIKYELMEKRPSLLQL
B2: Gal4AD-ASK4 (protein, UniProt Q9LNT9 1-163)
chain: MAETKKMIILKSSDGESFEIEEAVAVKSQTIKHMIEDDCADNGIPLPNVTGAILAKVIEYCKKHVEAAAEAGGDKDFYGSAENDELKNWDSEFVKVDQPTLFDLILAANYLNIGGLLDLTCKAVADQMRGKTPEQMRAHFNIKNDYTPEEEAEVRNENKWAFE
B3: Gal4AD-ASK21 (protein, UniProt Q8LF97 1-351)
chain: MSEGEMAIIKPEMMKSYIWLETADGSIQQVEQEVAMFCPMICQEVIQKGVGSSKNYAISLPQRVNPAMLSLIFDYCRFHQVPGRSNKERKVYDEKFIRMDTKRLCELTSAADSLQLKPLVDLTSRALARIIEGKTPEEIREIFHLPDDLTEEEKLEPLKNTMDDPRIRLLNRLYAKKRKELKEREKLKSVEVEEHVDERSVDDLLSFINGRDPKVVKTSKSKKKNKKRKEQKNGSSNGTCEALEKDLHNLDSKSQSAEIVDNTASCLGDVSNLPSMEDDIFTPKTEFEDGYIDDEIDPALKELLDREVEDFARRLNSSWVLSIGQERQPVNFSINGNGTSRRLTGPAAGHK
B4: Gal4AD-ASK13 (protein, UniProt Q9M1X5 1-154)
chain: MSKMVMLLSSDGESFQVEEAVAVQSQTIAHMIEDDCVANGVPIANVTGVILSKVIEYCKKHVVSDSPTEESKDELKKWDAEFMKALEQSSTLFDVMLAANYLNIKDLLDLGCQTVADMITGKKPDEIRALLGIENDFTPEEEEEIRKENQWAFE
B5: Gal4AD-ASK11 (protein, UniProt O49484 1-152)
chain: MSSKMIVLMSSDGQSFEVEEAVAIQSQTIAHMVEDDCVADGIPLANVESKILVKVIEYCKKHHVDEANPISEEDLNNWDEKFMDLEQSTIFELILAANYLNIKSLLDLTCQTVADMIKGKTPEEIRSTFNIENDFTPEEEEAVRKENQWAFE
B6: Gal4AD-ASK10 (protein, UniProt Q9LSX8 1-152)
chain: MSTKKIILKSSDGHSFEVEEEAACQCQTIAHMSEDDCTDNGIPLPEVTGKILEMVIEYCNKHHVDAANPCSDEDLKKWDKEFMEKYQSTIFDLIMAANYLNIKSLLDLACQTVADMIKDNTVEHTRKFFNIENDYTHEEEEAVRRENQWGFE
B7: Gal4AD-ASK18 (protein, UniProt Q9SY65 1-158)
chain: MSSNKILLTSSDGESFEIDEAVARKFLIIVHMMEDNCAGEAIPLENVTGDILSKIIEYAKMHVNEPSEEDEDEEAKKNLDSWDAKFMEKLDLETIFKIILAANYLNFEGLLGFASQTVADYIKDKTPEEVREIFNIENDFTPEEEEEIRKENAWTFNE
B8: Gal4AD-VIP1 (protein, UniProt Q9MA75 1-341)
chain: MEGGGRGPNQTILSEIEHMPEAPRQRISHHRRARSETFFSGESIDDLLLFDPSDIDFSSLDFLNAPPPPQQSQQQPQASPMSVDSEETSSNGVVPPNSLPPKPEARFGRHVRSFSVDSDFFDDLGVTEEKFIATSSGEKKKGNHHHSRSNSMDGEMSSASFNIESILASVSGKDSGKKNMGMGGDRLAELALLDPKRAKRILANRQSAARSKERKIRYTGELERKVQTLQNEATTLSAQVTMLQRGTSELNTENKHLKMRLQALEQQAELRDALNEALRDELNRLKVVAGEIPQGNGNSYNRAQFSSQQSAMNQFGNKTNQQMSTNGQPSLPSYMDFTKRG

This test has as its target LexA-C58VirF (Agrobacterium tumefaciens C58-C1) (UniProt Q7D2D9). Kind of test: two-hybrid; yeast strain L40 co-transformed with LexA fusions (pSTT91) and Gal4AD fusions (pGAD424); interaction read as histidine prototrophy, growth on SD-Leu-Trp-His, 2-3 days at 28 °C.
Take Gal4AD-ASK1 (from UniProt Q39255 1-160): the binding result is on record as “binds”.

For the molecule B1, the binding entry is given as “no binding”.

As for B2, the binding entry is “binds”.

Regarding B3, the binding result is recorded as “no binding”.

B4: the binding result is recorded as “binds”.

Turning to B5, the binding entry is reported as “no binding”.

For B6, the binding result is on record as “no binding”.

With B7, the binding result is “binds”.

In the case of B8, the binding result is given as “no binding”.
